{"source": "PubChem BioAssay AID1508597 – Cure First – 2020", "aim": "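Genes whose silencing sensitises or protects ovarian cancer cells against rucaparib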 (primary screen)", "cell system": "human ovarian carcinoma lines grown from tumours: OCI-P5x (papillary serous) and OCI-C5x (clear cell)", "reagents": "siRNA pool against human genes, 1.25 pmol siRNA per well", "time to read-out": "72 h or 96 h, depending on the cell culture", "challenge": "rucaparib 20 µM (about IC30) or vehicle, present until read-out", "measurement": "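Luminescent ATP-based viability assay read 72 or 96 h after transfection, depending on culture, given as normalised percent viability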", "direction": "viability, normalised: higher = more viable cells remaining", "hit rule": "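Active when normalised viability falls below 80 percent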", "meaning of the calls": "active = viability under 80%; inactive = viability 80% or more", "note": "The whole screen tested about 2,100 reagents; shown is a part drawn at random. 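Calls flag viability under 80% in either arm, not effects specific to rucaparib; the reference for percent is not stated.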 The record does not give: the 100% reference."}
{"Gene": "ZNF541", "rucaparib or vehicle": "Rucaparib", "cell line": "OCI-C5x (clear cell)", "technical replicate": "1", "viability, normalised (%)": 59.1, "activity call": "active"}
{"Gene": "ZNF541", "rucaparib or vehicle": "Rucaparib", "cell line": "OCI-C5x (clear cell)", "technical replicate": "2", "viability, normalised (%)": 51.6, "activity call": "active"}
{"Gene": "ZNF541", "rucaparib or vehicle": "Rucaparib", "cell line": "OCI-C5x (clear cell)", "technical replicate": "3", "viability, normalised (%)": 49.8, "activity call": "active"}
{"Gene": "ZNF541", "rucaparib or vehicle": "Rucaparib", "cell line": "OCI-P5x (serous)", "technical replicate": "1", "viability, normalised (%)": 54.4, "activity call": "active"}
{"Gene": "ZNF541", "rucaparib or vehicle": "Rucaparib", "cell line": "OCI-P5x (serous)", "technical replicate": "2", "viability, normalised (%)": 41.1, "activity call": "active"}
{"Gene": "ZNF541", "rucaparib or vehicle": "Rucaparib", "cell line": "OCI-P5x (serous)", "technical replicate": "3", "viability, normalised (%)": 46, "activity call": "active"}
{"Gene": "ZNF541", "rucaparib or vehicle": "Vehicle", "cell line": "OCI-C5x (clear cell)", "technical replicate": "1", "viability, normalised (%)": 31.1, "activity call": "active"}
{"Gene": "ZNF541", "rucaparib or vehicle": "Vehicle", "cell line": "OCI-C5x (clear cell)", "technical replicate": "2", "viability, normalised (%)": 56.7, "activity call": "active"}
{"Gene": "ZNF541", "rucaparib or vehicle": "Vehicle", "cell line": "OCI-C5x (clear cell)", "technical replicate": "3", "viability, normalised (%)": 60.8, "activity call": "active"}
{"Gene": "ZNF541", "rucaparib or vehicle": "Vehicle", "cell line": "OCI-P5x (serous)", "technical replicate": "1", "viability, normalised (%)": 62.5, "activity call": "active"}
{"Gene": "ZNF541", "rucaparib or vehicle": "Vehicle", "cell line": "OCI-P5x (serous)", "technical replicate": "2", "viability, normalised (%)": 77.2, "activity call": "active"}
{"Gene": "ZNF541", "rucaparib or vehicle": "Vehicle", "cell line": "OCI-P5x (serous)", "technical replicate": "3", "viability, normalised (%)": 43.8, "activity call": "active"}

2 successive reagents from above, quoted:
{"Gene": "ZNF541", "rucaparib or vehicle": "Rucaparib", "cell line": "OCI-C5x (clear cell)", "technical replicate": "3", "viability, normalised (%)": 49.8, "activity call": "active"}
{"Gene": "ZNF541", "rucaparib or vehicle": "Rucaparib", "cell line": "OCI-P5x (serous)", "technical replicate": "1", "viability, normalised (%)": 54.4, "activity call": "active"}

The list goes on:
{"Gene": "MED18", "rucaparib or vehicle": "Rucaparib", "cell line": "OCI-C5x (clear cell)", "technical replicate": "1", "viability, normalised (%)": 40.7, "activity call": "active"}
{"Gene": "MED18", "rucaparib or vehicle": "Rucaparib", "cell line": "OCI-C5x (clear cell)", "technical replicate": "2", "viability, normalised (%)": 36.8, "activity call": "active"}
{"Gene": "MED18", "rucaparib or vehicle": "Rucaparib", "cell line": "OCI-C5x (clear cell)", "technical replicate": "3", "viability, normalised (%)": 42.6, "activity call": "active"}
{"Gene": "MED18", "rucaparib or vehicle": "Rucaparib", "cell line": "OCI-P5x (serous)", "technical replicate": "1", "viability, normalised (%)": 59.6, "activity call": "active"}
{"Gene": "MED18", "rucaparib or vehicle": "Rucaparib", "cell line": "OCI-P5x (serous)", "technical replicate": "2", "viability, normalised (%)": 45.9, "activity call": "active"}
{"Gene": "MED18", "rucaparib or vehicle": "Rucaparib", "cell line": "OCI-P5x (serous)", "technical replicate": "3", "viability, normalised (%)": 57.5, "activity call": "active"}
{"Gene": "MED18", "rucaparib or vehicle": "Vehicle", "cell line": "OCI-C5x (clear cell)", "technical replicate": "1", "viability, normalised (%)": 50.9, "activity call": "active"}
{"Gene": "MED18", "rucaparib or vehicle": "Vehicle", "cell line": "OCI-C5x (clear cell)", "technical replicate": "2", "viability, normalised (%)": 36.3, "activity call": "active"}
{"Gene": "MED18", "rucaparib or vehicle": "Vehicle", "cell line": "OCI-C5x (clear cell)", "technical replicate": "3", "viability, normalised (%)": 41.5, "activity call": "active"}
{"Gene": "MED18", "rucaparib or vehicle": "Vehicle", "cell line": "OCI-P5x (serous)", "technical replicate": "1", "viability, normalised (%)": 64.4, "activity call": "active"}
{"Gene": "MED18", "rucaparib or vehicle": "Vehicle", "cell line": "OCI-P5x (serous)", "technical replicate": "2", "viability, normalised (%)": 64.7, "activity call": "active"}
{"Gene": "MED18", "rucaparib or vehicle": "Vehicle", "cell line": "OCI-P5x (serous)", "technical replicate": "3", "viability, normalised (%)": 68.8, "activity call": "active"}
{"Gene": "PIK3C2B", "rucaparib or vehicle": "Rucaparib", "cell line": "OCI-C5x (clear cell)", "technical replicate": "1", "viability, normalised (%)": 70.1, "activity call": "active"}
{"Gene": "PIK3C2B", "rucaparib or vehicle": "Rucaparib", "cell line": "OCI-C5x (clear cell)", "technical replicate": "2", "viability, normalised (%)": 68.5, "activity call": "active"}
{"Gene": "PIK3C2B", "rucaparib or vehicle": "Rucaparib", "cell line": "OCI-C5x (clear cell)", "technical replicate": "3", "viability, normalised (%)": 63.9, "activity call": "active"}
{"Gene": "PIK3C2B", "rucaparib or vehicle": "Rucaparib", "cell line": "OCI-P5x (serous)", "technical replicate": "1", "viability, normalised (%)": 114, "activity call": "inactive"}
{"Gene": "PIK3C2B", "rucaparib or vehicle": "Rucaparib", "cell line": "OCI-P5x (serous)", "technical replicate": "2", "viability, normalised (%)": 141, "activity call": "inactive"}
{"Gene": "PIK3C2B", "rucaparib or vehicle": "Rucaparib", "cell line": "OCI-P5x (serous)", "technical replicate": "3", "viability, normalised (%)": 107, "activity call": "inactive"}
{"Gene": "PIK3C2B", "rucaparib or vehicle": "Vehicle", "cell line": "OCI-C5x (clear cell)", "technical replicate": "1", "viability, normalised (%)": 82.9, "activity call": "inactive"}
{"Gene": "PIK3C2B", "rucaparib or vehicle": "Vehicle", "cell line": "OCI-C5x (clear cell)", "technical replicate": "2", "viability, normalised (%)": 77.7, "activity call": "active"}
{"Gene": "PIK3C2B", "rucaparib or vehicle": "Vehicle", "cell line": "OCI-C5x (clear cell)", "technical replicate": "3", "viability, normalised (%)": 63, "activity call": "active"}
{"Gene": "PIK3C2B", "rucaparib or vehicle": "Vehicle", "cell line": "OCI-P5x (serous)", "technical replicate": "1", "viability, normalised (%)": 108, "activity call": "inactive"}
{"Gene": "PIK3C2B", "rucaparib or vehicle": "Vehicle", "cell line": "OCI-P5x (serous)", "technical replicate": "2", "viability, normalised (%)": 78, "activity call": "active"}
{"Gene": "PIK3C2B", "rucaparib or vehicle": "Vehicle", "cell line": "OCI-P5x (serous)", "technical replicate": "3", "viability, normalised (%)": 87, "activity call": "inactive"}
